Paper PMC11615292, “Fast-diffusing receptor collisions with slow-diffusing peptide ligand assemble the ternary parathyroid hormone–GPCR–arrestin complex” (Nature Communications, 2024)
Results are given in words; binding and its absence hold for the method and conditions named. For part of these data: Binding seen in cells or lysates may run through a third protein. Some binding calls cover weakened binding; strength is not graded here.

The chains behind the UniProt entries cited, without tags or fusion partners. Residues count along the entry.
UniProt Q03431, residues 27-593: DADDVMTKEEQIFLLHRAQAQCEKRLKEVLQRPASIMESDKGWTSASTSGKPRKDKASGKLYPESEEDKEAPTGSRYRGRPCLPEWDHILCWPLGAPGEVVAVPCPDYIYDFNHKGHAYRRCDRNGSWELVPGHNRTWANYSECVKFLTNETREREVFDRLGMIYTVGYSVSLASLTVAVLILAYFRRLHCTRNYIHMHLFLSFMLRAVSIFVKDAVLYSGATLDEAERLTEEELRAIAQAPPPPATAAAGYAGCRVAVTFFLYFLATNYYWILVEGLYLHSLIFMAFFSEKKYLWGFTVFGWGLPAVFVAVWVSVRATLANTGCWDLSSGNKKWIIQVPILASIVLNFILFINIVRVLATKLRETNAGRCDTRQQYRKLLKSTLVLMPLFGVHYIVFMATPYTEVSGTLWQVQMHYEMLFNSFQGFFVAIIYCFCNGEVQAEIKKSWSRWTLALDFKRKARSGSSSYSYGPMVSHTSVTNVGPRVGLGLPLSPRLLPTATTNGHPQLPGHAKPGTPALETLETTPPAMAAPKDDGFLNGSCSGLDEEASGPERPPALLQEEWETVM
UniProt P32121: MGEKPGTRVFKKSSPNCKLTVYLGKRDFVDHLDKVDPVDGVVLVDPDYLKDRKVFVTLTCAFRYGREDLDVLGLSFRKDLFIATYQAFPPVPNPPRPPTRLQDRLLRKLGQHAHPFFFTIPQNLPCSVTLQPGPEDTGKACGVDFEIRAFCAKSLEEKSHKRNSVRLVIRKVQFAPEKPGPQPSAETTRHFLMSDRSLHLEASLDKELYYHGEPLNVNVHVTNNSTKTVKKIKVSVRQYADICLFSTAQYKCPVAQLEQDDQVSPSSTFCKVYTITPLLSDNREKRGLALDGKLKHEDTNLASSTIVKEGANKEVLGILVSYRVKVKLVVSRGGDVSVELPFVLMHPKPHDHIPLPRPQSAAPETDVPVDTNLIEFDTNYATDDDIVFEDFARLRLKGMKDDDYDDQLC

What was measured:
[1] = molecular target: PTH type 1 receptor C-terminally fused to iRFP670 (PTH1R^iRFP) (human) (UniProt Q03431); assay: dual-colour single-molecule coincidence detection (TIRF); live HEK293 cells co-expressing PTH1R^iRFP and βarr2^mNG or βarr2^PAmCherry (the latter in CLTA^mNG cells); stimulated with PTH (50 nM); coincidental detection within <80 nm
[2] = molecular target: PTH type 1 receptor C-terminally fused to CFP (PTH1R^CFP) (human) (UniProt Q03431); assay: FRET or BRET; single live HEK293 cells expressing PTH1R^CFP and βarr2^YFP; time courses under TIRF illumination in response to 10 nM PTH

Substance	binding [1]	binding [2]
β-arrestin 2 fused to mNeonGreen (βarr2^mNG) (from UniProt P32121 1-409)	binds	
β-arrestin 2 fused to photoactivatable mCherry1 (βarr2^PAmCherry) (from UniProt P32121 1-409)	binds	
β-arrestin 2 fused to YFP (βarr2^YFP) (from UniProt P32121 1-409)		binds
